Source: publication doi:10.1101/2023.12.26.573381
Positions count from the first letter of the chain named. Like-named read-outs stand apart in the source and are kept apart here. These are yes or no findings as the source states them, for the method shown. Binding seen in cells or lysates may run through a third protein. Some results given as binding are weak or reduced against the parent protein; the word gives no strength. For some assays here: Where a sequence is shown, tags or fusion partners need not be part of it. One block for each molecule: values may come before it.

Protein sequences, listed by entry. Tags and fused reporters are not part of them. Residues count along the entry.
UniProt Q9H0K1: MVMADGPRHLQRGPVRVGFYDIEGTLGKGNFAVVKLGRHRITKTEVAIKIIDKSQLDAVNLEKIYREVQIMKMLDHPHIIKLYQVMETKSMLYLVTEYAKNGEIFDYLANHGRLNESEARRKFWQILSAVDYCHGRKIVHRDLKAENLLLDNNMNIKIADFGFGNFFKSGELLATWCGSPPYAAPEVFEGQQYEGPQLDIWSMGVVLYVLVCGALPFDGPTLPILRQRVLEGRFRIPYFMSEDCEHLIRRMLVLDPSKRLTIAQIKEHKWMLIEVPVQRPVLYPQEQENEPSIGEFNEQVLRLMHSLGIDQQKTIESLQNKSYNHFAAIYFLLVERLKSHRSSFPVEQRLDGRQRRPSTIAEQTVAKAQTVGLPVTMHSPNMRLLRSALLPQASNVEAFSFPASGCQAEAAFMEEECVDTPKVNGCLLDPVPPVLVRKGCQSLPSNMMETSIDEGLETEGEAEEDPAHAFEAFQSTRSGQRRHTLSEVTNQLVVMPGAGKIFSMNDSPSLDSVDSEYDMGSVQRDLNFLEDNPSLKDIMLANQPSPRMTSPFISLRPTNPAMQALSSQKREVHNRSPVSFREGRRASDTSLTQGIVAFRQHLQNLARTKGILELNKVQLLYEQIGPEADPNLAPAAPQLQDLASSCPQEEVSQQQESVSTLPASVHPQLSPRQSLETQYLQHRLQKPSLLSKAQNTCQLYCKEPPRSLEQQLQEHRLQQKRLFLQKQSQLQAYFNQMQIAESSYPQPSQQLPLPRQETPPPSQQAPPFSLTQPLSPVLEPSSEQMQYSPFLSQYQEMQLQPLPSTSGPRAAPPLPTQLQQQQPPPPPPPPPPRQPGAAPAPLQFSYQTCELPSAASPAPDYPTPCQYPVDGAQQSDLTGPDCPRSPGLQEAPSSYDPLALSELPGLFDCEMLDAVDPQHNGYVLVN
UniProt P21802, residues 22-821: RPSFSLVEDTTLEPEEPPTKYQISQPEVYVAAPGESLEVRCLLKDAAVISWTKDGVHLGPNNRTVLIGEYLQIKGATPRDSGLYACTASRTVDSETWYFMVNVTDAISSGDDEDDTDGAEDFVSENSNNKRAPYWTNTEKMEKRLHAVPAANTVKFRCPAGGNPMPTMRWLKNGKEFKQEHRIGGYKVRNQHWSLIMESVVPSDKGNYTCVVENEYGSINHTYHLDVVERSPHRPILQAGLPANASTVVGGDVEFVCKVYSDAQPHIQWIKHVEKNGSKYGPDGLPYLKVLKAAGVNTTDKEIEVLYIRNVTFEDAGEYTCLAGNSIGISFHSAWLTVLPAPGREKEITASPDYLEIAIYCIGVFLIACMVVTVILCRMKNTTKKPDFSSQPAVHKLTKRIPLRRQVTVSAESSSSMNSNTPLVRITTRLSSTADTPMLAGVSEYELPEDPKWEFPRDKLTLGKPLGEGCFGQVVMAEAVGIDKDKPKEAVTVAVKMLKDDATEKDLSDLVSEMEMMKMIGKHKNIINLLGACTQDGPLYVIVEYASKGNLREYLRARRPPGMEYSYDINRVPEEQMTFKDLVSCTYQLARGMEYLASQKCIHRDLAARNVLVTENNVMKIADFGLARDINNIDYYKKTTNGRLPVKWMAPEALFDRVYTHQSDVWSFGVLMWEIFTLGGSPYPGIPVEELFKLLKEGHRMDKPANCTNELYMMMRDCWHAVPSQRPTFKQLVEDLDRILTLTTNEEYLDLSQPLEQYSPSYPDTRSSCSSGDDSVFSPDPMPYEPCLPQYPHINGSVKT
UniProt P62993: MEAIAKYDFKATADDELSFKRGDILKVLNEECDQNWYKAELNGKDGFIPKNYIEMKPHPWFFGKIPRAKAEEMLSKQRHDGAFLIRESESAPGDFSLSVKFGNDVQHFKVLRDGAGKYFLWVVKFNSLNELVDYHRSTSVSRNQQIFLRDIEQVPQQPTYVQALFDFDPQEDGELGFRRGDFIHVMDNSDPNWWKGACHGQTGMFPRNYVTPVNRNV

What was measured:
Assay in all cases: co-IP
[1] = biological target: Salt Inducible Kinase 2 (SIK2), endogenous in MIO-M1 cells (human (endogenous in MIO-M1)) (UniProt Q9H0K1)
[2] = biological target: T1, Gab1 docking protein, endogenous in MIO-M1 cells (human (endogenous in MIO-M1)) (UniProt Q13480)
T1 sequence: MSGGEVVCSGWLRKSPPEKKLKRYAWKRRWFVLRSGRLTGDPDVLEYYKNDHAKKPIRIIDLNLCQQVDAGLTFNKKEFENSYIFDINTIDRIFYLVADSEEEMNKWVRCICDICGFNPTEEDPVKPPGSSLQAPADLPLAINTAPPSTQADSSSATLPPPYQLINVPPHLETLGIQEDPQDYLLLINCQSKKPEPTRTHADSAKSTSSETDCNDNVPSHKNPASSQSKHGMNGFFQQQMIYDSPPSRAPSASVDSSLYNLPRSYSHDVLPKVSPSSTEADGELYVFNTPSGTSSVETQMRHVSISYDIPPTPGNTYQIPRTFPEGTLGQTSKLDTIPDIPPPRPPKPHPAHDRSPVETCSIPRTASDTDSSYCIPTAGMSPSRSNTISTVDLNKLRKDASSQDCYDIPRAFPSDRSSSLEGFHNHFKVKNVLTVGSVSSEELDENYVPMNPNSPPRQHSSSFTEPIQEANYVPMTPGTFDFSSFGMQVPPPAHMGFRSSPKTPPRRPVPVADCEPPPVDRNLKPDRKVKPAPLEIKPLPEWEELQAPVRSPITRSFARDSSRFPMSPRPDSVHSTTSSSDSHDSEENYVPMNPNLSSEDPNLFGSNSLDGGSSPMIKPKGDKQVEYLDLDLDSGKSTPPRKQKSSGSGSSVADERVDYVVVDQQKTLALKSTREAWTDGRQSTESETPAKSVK

[3] = biological target: T2, c-Myc tagged human Gab1 S266A (human) (UniProt Q13480)
T2 sequence: T1 sequence with S266A

[4] = biological target: Salt Inducible Kinase 2 (SIK2), endogenous in MIO-M1 cells (human (endogenous in MIO-M1)) (UniProt Q9H0K1); remark: listed apart in the source

binding [1]: binds
Molecule: FGFR2, endogenous in MIO-M1 cells (from UniProt P21802 22-821) (receptor)

binding [2]: binds
binding [3]: binds
Molecule: Grb2, endogenous in MIO-M1 cells (from UniProt P62993 1-217)

binding [2]: binds
Molecule: Salt Inducible Kinase 2 (SIK2), endogenous in MIO-M1 cells (from UniProt Q9H0K1 1-926)

binding [4]: binds
B1: Gab1 docking protein, endogenous in MIO-M1 cells (protein, UniProt Q13480 1-694)
chain: T1 sequence
